No constants are given. Whether binding was seen depends on the method and setting. In cells and extracts the contact can be indirect.
What was measured:
Rab33B GTPase [1] = target: T1, Rab33B GTPase (UniProt O35963); experiment: co-IP; coimmunoprecipitation of core and Rab33B; no details given (told only in the discussion)
T1 sequence: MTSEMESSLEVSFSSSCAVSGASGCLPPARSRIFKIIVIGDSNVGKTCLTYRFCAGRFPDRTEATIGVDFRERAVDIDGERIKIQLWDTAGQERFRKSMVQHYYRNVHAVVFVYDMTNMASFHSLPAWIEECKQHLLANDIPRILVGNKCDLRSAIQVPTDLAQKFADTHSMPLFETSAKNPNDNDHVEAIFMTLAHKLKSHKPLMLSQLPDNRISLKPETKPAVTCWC

Chains of the proteins cited; added tags and fusions are not shown.
UniProt P03146: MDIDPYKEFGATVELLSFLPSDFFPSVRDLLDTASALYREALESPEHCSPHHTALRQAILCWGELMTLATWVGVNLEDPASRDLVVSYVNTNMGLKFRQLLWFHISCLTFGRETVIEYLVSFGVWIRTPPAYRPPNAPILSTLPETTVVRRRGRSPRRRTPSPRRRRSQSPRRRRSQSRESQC

Rab33B GTPase [2] = target: T1, Rab33B GTPase; experiment: pull-down; GST pulldown of core and Rab33B; no details given (told only in the discussion; which partner was fused to GST is not told)

## hepatitis B virus (HBV) core protein (from UniProt P03146 1-183)
Rab33B GTPase [1]
  binding: no binding
Rab33B GTPase [2]
  binding: no binding

From PMC5490832
